Results published in US20110076272A1, “THERAPEUTIC METHODS AND COMPOSITIONS” (priority 2009, published 2011).
Results are given in words; binding and its absence hold for the method and conditions named. Some entries that bind do so weakly or less than the wild type.

Sequences of proteins named here, by UniProt entry; tags and fusion partners are left off. Residues count along the entry.
UniProt P58022, residues 26-776: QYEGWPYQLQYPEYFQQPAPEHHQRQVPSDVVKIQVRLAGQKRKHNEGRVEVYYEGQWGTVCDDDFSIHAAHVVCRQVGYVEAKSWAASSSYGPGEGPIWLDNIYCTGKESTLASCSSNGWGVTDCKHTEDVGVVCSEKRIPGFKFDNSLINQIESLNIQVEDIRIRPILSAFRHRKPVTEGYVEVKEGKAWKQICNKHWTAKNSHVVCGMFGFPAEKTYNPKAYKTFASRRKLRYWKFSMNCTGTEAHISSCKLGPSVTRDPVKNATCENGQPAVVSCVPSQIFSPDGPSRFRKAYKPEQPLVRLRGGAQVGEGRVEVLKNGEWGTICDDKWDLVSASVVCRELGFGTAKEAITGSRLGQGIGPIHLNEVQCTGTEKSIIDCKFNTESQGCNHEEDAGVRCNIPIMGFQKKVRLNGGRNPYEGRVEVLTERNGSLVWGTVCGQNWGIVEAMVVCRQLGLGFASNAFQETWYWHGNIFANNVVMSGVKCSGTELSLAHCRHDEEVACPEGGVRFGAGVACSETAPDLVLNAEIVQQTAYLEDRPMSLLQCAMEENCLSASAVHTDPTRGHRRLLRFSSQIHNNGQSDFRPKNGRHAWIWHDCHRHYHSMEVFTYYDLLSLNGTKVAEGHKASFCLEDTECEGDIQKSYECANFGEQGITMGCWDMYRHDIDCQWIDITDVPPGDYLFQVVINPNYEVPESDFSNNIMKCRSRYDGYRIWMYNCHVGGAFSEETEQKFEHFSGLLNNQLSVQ

How the values were obtained:
mouse LOXL2 (mouse) [1] = target: mouse LOXL2 (mouse) (UniProt P58022); experiment: binding curve, method not named (FIG. 8, panel P)
[2] = target: T1, human lysyl oxidase-like 2 (LOXL2) (human, UniProt Q9Y4K0 26-774); experiment: binding curve, method not named (FIG. 8, panel P)
T1 sequence (looked up): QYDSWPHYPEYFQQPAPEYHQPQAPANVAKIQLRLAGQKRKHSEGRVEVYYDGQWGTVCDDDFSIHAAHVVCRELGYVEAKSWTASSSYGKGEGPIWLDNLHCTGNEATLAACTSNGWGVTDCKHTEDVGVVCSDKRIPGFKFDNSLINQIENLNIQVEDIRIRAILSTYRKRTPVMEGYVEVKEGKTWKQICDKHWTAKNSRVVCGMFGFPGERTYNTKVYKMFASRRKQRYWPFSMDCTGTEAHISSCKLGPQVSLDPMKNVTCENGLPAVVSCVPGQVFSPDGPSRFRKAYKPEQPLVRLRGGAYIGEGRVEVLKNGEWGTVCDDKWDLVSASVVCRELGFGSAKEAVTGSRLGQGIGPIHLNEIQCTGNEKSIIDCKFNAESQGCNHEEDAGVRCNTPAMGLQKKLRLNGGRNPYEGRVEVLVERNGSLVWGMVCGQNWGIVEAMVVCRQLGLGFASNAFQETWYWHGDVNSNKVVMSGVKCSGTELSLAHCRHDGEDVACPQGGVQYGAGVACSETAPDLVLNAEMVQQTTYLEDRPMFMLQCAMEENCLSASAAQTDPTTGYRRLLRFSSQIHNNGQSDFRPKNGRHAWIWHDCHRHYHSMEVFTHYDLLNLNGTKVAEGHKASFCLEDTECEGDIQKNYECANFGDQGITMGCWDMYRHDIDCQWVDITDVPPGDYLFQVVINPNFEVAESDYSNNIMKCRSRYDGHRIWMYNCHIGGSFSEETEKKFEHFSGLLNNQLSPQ

[3] = target: T1, human lysyl oxidase-like 2 (LOXL2); experiment: immunofluorescence on Hs578t tumor cell cultures
[4] = target: T1, human lysyl oxidase-like 2 (LOXL2); experiment: ELISA, AB0023 titrated on hLOXL2 [Cont. 2) panel n]
[5] = target: T1, human lysyl oxidase-like 2 (LOXL2); experiment: ELISA, AB0023 titrated on human LOXL2 [Cont. 3) panel p]
[6] = target: T1, human lysyl oxidase-like 2 (LOXL2); experiment: Western blot of LOX, LOXL1, LOXL2, LOXL3 and LOXL4 probed with AB0023 [Cont. 2) panel m]
mouse LOXL2 (mouse) [7] = target: mouse LOXL2 (mouse) (UniProt P58022); experiment: method not named (FIG. 8, Panel p)
mouse LOXL2 (mouse) [8] = target: mouse LOXL2 (mouse) (UniProt P58022); experiment: ELISA, AB0023 titrated on mouse LOXL2 [Cont. 3) panel p]
[9] = target: T1, human lysyl oxidase-like 2 (LOXL2); experiment: Western blot and ELISA (FIG. 8, Panels m, n)
[10] = target: T1, human lysyl oxidase-like 2 (LOXL2); experiment: immunofluorescence of Hs578t cultures, LOXL2 in the extracellular matrix
[11] = target: T1, human lysyl oxidase-like 2 (LOXL2); experiment: immunofluorescence of HS578t cells after non-targeting or LOXL2 siRNA [Cont. 1) panels e, f]

Measured: binding

B1: anti-LOXL2 monoclonal antibody AB0023 (antibody, V domains shown)
VH: QVQLQQSGAELVRPGTSVKVSCKASGYAFTYYLIEWVKQRPGQGLEWIGVINPGSGGTNYNEKFKGKATLTADKSSSTAYMQLSSLTSDDSAVYFCARNWMNFDYWGQGTTLTVSS
VL: DIVMTQAAPSVSVTPGESVSISCRSSKSLLHSNGNTYLYWFLQRPGQSPQFLIYRMSNLASGVPDRFSGSGSGTAFTLRISRVEAEDVGVYYCMQHLEYPYTFGGGTKLEIK
notes: Mouse monoclonal antibody from a hybridoma, raised against full-length LOXL2 and purified from ascites; also called mouse anti-human LOXL2 antibody; LOXL2-specific monoclonal antibody
binds: all assays above
